Results deposited as PubChem BioAssay AID1259308 (NCATS, 2017)

Purpose: 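Candidate targets for better recombinant protein yield in mammalian cells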 (primary screen)
Cells: human HEK293 embryonic kidney cells stably expressing firefly luciferase (HEK-CMV-Luc2-Hygro)
Reagents: single siRNA against human genes, 0.8 pmol siRNA per well
Duration: 72 h
Detection: 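Reporter luminescence and viable-cell signal on separate replicate plates, given as percent of non-targeting control and median/MAD z-scores, plus per-cell luciferase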
Direction: total luciferase, z-score: higher = more reporter protein produced
Call rule: 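An siRNA counts as active if its total luciferase robust z-score exceeds 3; genes with two or more such siRNAs out of three were retested with fresh siRNAs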
Meaning of the calls: active = raised luciferase; inactive = no rise
The deposit covers about 59,000 reagents; shown is a part drawn at random. Of all reagents, about 1,510 (2.6%) were called active. 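Calls use total luciferase alone and ignore viability, so some active siRNAs may act by altering cell number.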 Entries without a mark were called inactive. The numbers tell different reagents against one gene apart. Further read-outs or replicates are left out here. Reagent sequences are not shown.

Against OR56A3 #1 the deposit lists total luciferase, z-score 0.866.
For OR56A3 #2, the entry reads total luciferase, z-score -0.598.
OR56A3 #3 showed total luciferase, z-score 1.61.
CDC14A #1 scored total luciferase, z-score -0.596.
CDC14A #2 gave total luciferase, z-score 0.0726.
With knock-down of CDC14A #3, the screen gave total luciferase, z-score 0.765.
After knock-down of YPEL3 #1, the record shows total luciferase, z-score -0.333.
Depletion of YPEL3 #2 resulted in: total luciferase, z-score 0.937.
YPEL3 #3 scored total luciferase, z-score -0.73.
For CCDC3 #1 the deposit lists total luciferase, z-score -0.169.
CCDC3 #2 showed total luciferase, z-score 0.917.
CCDC3 #3 showed total luciferase, z-score -0.0906.
Depletion of KLK4 #1 gave: total luciferase, z-score 0.315.
KLK4 #2 showed total luciferase, z-score 1.23.
For KLK4 #3, the values are total luciferase, z-score -0.256.
With knock-down of WNT6 #1, the record shows total luciferase, z-score -0.768.
For WNT6 #2, the entry reads total luciferase, z-score 0.159.
With knock-down of WNT6 #3, the screen gave total luciferase, z-score -0.451.
After knock-down of TBX5-AS1 #1 the results were total luciferase, z-score -1.98.
Depletion of TBX5-AS1 #2 gave: total luciferase, z-score 0.173.
For TBX5-AS1 #3, the entry reads total luciferase, z-score -1.37.
CARINH #1 showed total luciferase, z-score 2.3.
Knock-down of CARINH #2 gave: total luciferase, z-score 1.87.
Against CARINH #3 the deposit lists total luciferase, z-score -0.364.
For RPS21 #1, the entry reads total luciferase, z-score -1.59.
With knock-down of RPS21 #2, the screen gave total luciferase, z-score -1.15.
Against RPS21 #3, the entry reads total luciferase, z-score -3.07.
For CDAN1 #1, the entry reads total luciferase, z-score 0.579.
With knock-down of CDAN1 #2, the record shows total luciferase, z-score 0.403.
With knock-down of CDAN1 #3 the results were total luciferase, z-score 1.25.
With knock-down of KBTBD12 #1, the record shows total luciferase, z-score -0.249.
Against KBTBD12 #2, the entry reads total luciferase, z-score -0.0211.
Depletion of KBTBD12 #3 gave: total luciferase, z-score -1.12.
For CMTR2 #1, the values are total luciferase, z-score -0.229.
CMTR2 #2 scored total luciferase, z-score -0.169.
Silencing of CMTR2 #3 gave: total luciferase, z-score 0.148.
For SAT2 #1, the values are total luciferase, z-score 1.3.
Depletion of SAT2 #2 resulted in: total luciferase, z-score 0.759.
Knock-down of SAT2 #3 resulted in: total luciferase, z-score -0.771.
Silencing of PKD2L1 #1 gave: total luciferase, z-score 0.222.
After knock-down of PKD2L1 #2, the record shows total luciferase, z-score 3.56 (active).
For PKD2L1 #3, the entry reads total luciferase, z-score -0.691.

Entries listed so far whose gene name starts with R or r (3):
RPS21 #1 → total luciferase, z-score: -1.59
RPS21 #2 → total luciferase, z-score: -1.15
RPS21 #3 → total luciferase, z-score: -3.07
